No constants are given. Whether binding was seen depends on the method and setting. Some results given as binding are weak or reduced against the parent protein; the word gives no strength.

By UniProt entry, the sequences of proteins in these tests, tags left out.
UniProt P61073: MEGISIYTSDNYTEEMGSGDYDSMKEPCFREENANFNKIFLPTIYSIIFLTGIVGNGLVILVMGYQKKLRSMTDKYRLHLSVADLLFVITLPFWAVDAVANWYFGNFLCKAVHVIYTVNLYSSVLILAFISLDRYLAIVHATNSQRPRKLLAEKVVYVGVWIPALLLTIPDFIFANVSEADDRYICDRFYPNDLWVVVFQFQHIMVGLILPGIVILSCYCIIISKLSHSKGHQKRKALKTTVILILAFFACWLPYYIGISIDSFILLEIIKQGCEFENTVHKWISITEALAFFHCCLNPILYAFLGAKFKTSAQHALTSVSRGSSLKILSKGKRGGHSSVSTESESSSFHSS

The experiment concerns the target CXC chemokine receptor 4 (CXCR4) on lentiviral particles (UniProt P61073). The experiment in a line: SPR; displacement: sequential injection of increasing concentrations of one chemokine onto CXCR4 particle chips pretreated with a single concentration of the other chemokine; only the binder purified.

B1: CXC chemokine ligand 14 (CXCL14), synthetic (ligand, UniProt O95715 35-111)
chain: SKCKCSRKGPKIRYSDVKKLEMKPKYPHCEEKMVIITTKSVSRYRGQEHCLHPKLQSTKRFIKWYNAWNEKRRVYEE
In the case of B1, the binding result is given as “binds”.

(Values after paper PMC5472405.)
